Data as given in publication PMC6459484, “Synthetic surfactin analogues have improved anti-PEDV properties” (PLoS ONE, 2019).
Square brackets hold non-standard residues; d marks the D form. Peptide text beside a SMILES is read from it. * marks the point of attachment. Palmitoyl = CCCCCCCCCCCCCCCC(=O)*

Test system: PEDV CV777
Assay: Plaque reduction assay (anti-PEDV activity)
Format: cell-based, Porcine epidemic diarrhea virus
Details: fold of surfactin's SI
Experimental: Cercopithecus aethiops kidney epithelial cells (Vero, ATCC, CCL-81) were cultured in high glucose DMEM (Gibco, US), supplemented with 10% fetal bovine serum (FBS, GIBCO), at 37 °C in a 5% CO2 humidified atmosphere. Cells were routinely seeded at a density of 2×10^5 /mL in plastic tissue culture flasks (25 cm^2 flasks, Corning, USA) and passaged every 3–4 days. PEDV CV777 was provided by the Jiangsu Academy of Agricultural Sciences (JAAS).
Vero cells were seeded at 2 × 10^5 cells/well in 24-well tissue culture plates and incubated 18–24 h at 37 °C until approximately 95% confluency was reached. 100 PFU of PEDV mixed with an equal volume of SLP in DMEM or DMEM alone were incubated 10 minutes at 37 °C, then added into the wells of the Vero cells and incubated 30 minutes at 4 °C. […] The data are representative of 3 biological replicates and each plaque assay was performed in triplicate and values are expressed as means ± the standard deviation. Curve fitting and EC50 were calculated with GraphPad Prism 6 using the log[inhibitor] vs. response equation.
The SLPs were tested for anti-PEDV activity using a plaque reduction assay. […] The adsorbed virus particles were then counted by plaque forming assays (Fig 2A). […]
Fig 2 Anti-PEDV activities of lipopeptides. […] After washing cells of unadsorbed virus, the remaining infectious particles was detected by plaque assay. […]

Structure (SMILES) | Selectivity index / safe and effective concentration range relative to surfactin [times]
CCCCCCCCCCCCCCCC(=O)N[C@@H](CCC(=O)O)C(=O)N[C@H](C(=O)N[C@H](CC(C)C)C(=O)N[C@H](CC(C)C)C(=O)N[C@@H](CC(=O)O)C(N)=O)C(C)C [SLP8] (Palmitoyl-EV[dL][dL]D-NH2) | 21
CCCCCCCCCCCCCCCC(=O)N[C@@H](CCC(=O)O)C(=O)N[C@H](C(=O)N[C@H](CC(C)C)C(=O)N[C@@H](CC(=O)O)C(=O)N[C@H](CC(C)C)C(=O)O)C(C)C [SLP5] (Palmitoyl-EV[dL]D[dL]-OH) | 13
